Laboratory results taken from paper PMC11101478.
No constants are given. Whether binding was seen depends on the method and setting. Binding can be weak; no strength is given.

Molecular target: T1, gpJ713, C-terminal truncation of bacteriophage lambda gpJ starting from residue 713 (bacteriophage lambda) (UniProt P03749)
T1 sequence: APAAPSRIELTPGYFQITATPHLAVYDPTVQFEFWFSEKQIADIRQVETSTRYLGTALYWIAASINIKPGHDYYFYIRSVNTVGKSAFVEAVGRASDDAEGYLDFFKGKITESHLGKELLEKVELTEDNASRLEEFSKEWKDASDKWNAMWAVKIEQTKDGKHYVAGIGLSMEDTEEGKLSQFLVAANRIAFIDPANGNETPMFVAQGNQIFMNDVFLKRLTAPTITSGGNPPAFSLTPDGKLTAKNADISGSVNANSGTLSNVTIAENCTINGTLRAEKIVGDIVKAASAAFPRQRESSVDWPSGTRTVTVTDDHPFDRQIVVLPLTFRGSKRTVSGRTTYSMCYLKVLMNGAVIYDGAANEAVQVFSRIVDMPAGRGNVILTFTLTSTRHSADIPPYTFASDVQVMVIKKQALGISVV
Experiment: cryo-EM structure; His-tagged gpJ713 purified from E. coli BL21 (DE3) by nickel column and gel filtration; the host's isomerase came along; closed state, C3 symmetry, map at 2.75 Å

For “peptidylprolyl isomerase protein (E. coli (endogenous in BL21 (DE3))) (enzyme)”, the binding was “binds”.
